Among all 350,000 compounds or so, about 1,200 (0.34%) were called active. Inconclusive results, whose numbers are uncertain, are shown with a selection of clear calls. Calls follow the shape of the dose curve; as a rule, active = well fitted inhibition curve with a large enough effect; inconclusive = small, poorly fitted or top-dose-only effect; inactive = no such curve, though single readings can be large or run the other way. Where the call is inconclusive, the potency comes from a doubtful curve fit.
molecular target: DNA repair nuclease/redox regulator APEX1 (Homo sapiens) (UniProt P27695); experiment: qHTS Assay for Inhibitors of the Human Apurinic/apyrimidinic Endonuclease 1 (APE1); settings: recombinant APE1, TAMRA/BHQ-2 abasic DNA cleavage fluorescence; activity change, negative = inhibition: at 65.8 µM (top of the series); also: nearly all actives have a fitted effect of over 55% in size;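 as to activity change, negative = inhibition: plate controls were vehicle for no effect and reference inhibitor for full effect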
Outline: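 Incision of a quenched TAMRA/BHQ-2 THF abasic-site duplex (50 nM) by 0.75 nM APE1, after 15 min compound preincubation, measured as fluorescence increase over three 60 s reads. Values normalized to buffer, DMSO and NSC13755 control wells.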
Potency is read from the fitted curve at half-maximal effect.

By UniProt entry, the sequences of proteins in these tests, tags left out.
UniProt P27695, whole entry, looked up: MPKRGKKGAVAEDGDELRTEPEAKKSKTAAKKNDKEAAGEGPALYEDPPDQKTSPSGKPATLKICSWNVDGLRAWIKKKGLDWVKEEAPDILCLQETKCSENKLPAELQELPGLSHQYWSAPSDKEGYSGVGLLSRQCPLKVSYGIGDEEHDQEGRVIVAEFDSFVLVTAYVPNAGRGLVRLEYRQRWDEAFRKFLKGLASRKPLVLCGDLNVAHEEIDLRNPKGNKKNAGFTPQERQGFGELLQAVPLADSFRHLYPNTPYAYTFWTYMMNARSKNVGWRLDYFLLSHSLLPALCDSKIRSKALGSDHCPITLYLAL

Row | Compound | Potency | activity change, negative = inhibition
1 | CC1CCCC(NC(=O)C2CCC(CNc3c(N4CCCCC4)c(=O)c3=O)CC2)C1C (stereo not drawn) | inconclusive: 44.7 µM [inhibitor, single point] | 
2 | NS(=O)(=O)c1ccc(-c2ccc(/C=C3\SC(=S)N(C4CCS(=O)(=O)C4)C3=O)o2)cc1 (stereo not drawn) | inactive | 
3 | CC1=C(C#N)C(=O)NC(=O)/C1=C\c1ccc(-c2ccc(C)cc2[N+](=O)[O-])o1 | inconclusive: 10 µM [inhibitor, partial curve, poor fit] | 
4 | COC(=O)c1ccc2c(c1)C(C)(C)C(/C=C/c1ccccc1O)=[N+]2C | inconclusive: 35.5 µM [inhibitor, single point] | 
5 | COc1cc(OC)c(OC)cc1/C=C(\C#N)C(=O)NCc1cccs1 | inactive | 
6 | COc1cc(CCCN2C(=O)C(=O)NC[C@@H]2CCCCN)cc(OC)c1OC | inconclusive: 28.2 µM [inhibitor, partial curve] | 
7 | CCCc1cc(=O)oc2cc(OCC(=O)Nc3ccc(S(N)(=O)=O)cc3)ccc12 | inconclusive: 10.6 µM [inhibitor, partial curve] | 
8 | Cc1ccccc1NC1=C(C(=O)c2ccccc2)N(C)S(=O)(=O)c2ccccc21 | inconclusive: 0.0282 µM [inhibitor, full curve] | 
9 | O=C1C2=CC[C@H]3C(=O)N(C4CCCCC4)C(=O)[C@@H]3[C@@H]2[C@H](O)[C@@H]2O[C@H]12 |  | inactive: 10.4% [at 12.4 µM]
10 | COC1=C(Nc2ccc(O)cc2)C(=O)c2ccccc2C1=O | inconclusive: 14.1 µM [inhibitor, partial curve, poor fit] | 
11 | CCc1ccc(N=C2NC(=O)/C(=C/c3ccc(OCC(=O)O)cc3)S2)cc1 | inconclusive: 33.6 µM [inhibitor, single point] | 
12 | Cn1c(/C(C#N)=C/c2ccc(-c3ccc(S(N)(=O)=O)cc3)o2)nc2ccccc21 | inconclusive: 31.6 µM [inhibitor, partial curve] | 
13 | O=C(CN(c1cccc(C(F)(F)F)c1)S(=O)(=O)c1ccc(Cl)c([N+](=O)[O-])c1)NCc1ccccc1Cl | inconclusive: 25.1 µM [inhibitor, single point] | 
14 | Cc1ccc(N/C=C/C(=O)C(C)(C)C)c(O)c1 | inconclusive: 3.98 µM [inhibitor, single point] | 
15 | Cc1ccc(S(=O)(=O)N2CCC(=O)N(CCOC(=O)Nc3cc(C)cc(C)c3)CC2)cc1 | inconclusive: 3.16 µM [inhibitor, single point] | 
16 | Cc1nn2c(C)c(C(=O)Nc3ccccc3)cnc2c1-c1ccccc1 | inconclusive: 31.6 µM [inhibitor, single point] | 
17 | Cc1cccc(N2CCN(S(=O)(=O)c3ccc4c(c3)CC(=O)N4C)CC2)c1C | inactive | 
18 | C/C=C/C(=O)Nc1cccc(C2=NOC3(C2)C[C@@H](C(N)=O)N(C(=O)c2cc([N+](=O)[O-])cc([N+](=O)[O-])c2C)C3)c1 (stereo partly drawn) | inactive | 
19 | C#CCOCCOCCOCCNc1nc(N2CCN(C(=O)CCCCCCCCCCNC(=O)Cn3cc(CCCCCN)nn3)CC2)nc(N2CCN(C(=O)CCCCCCCCCCNC(=O)Cn3cc(C[C@@H](C)O)nn3)CC2)n1 | inconclusive: 37.7 µM [inhibitor, single point] | 
20 | COc1cccc(NC(=O)CN(C)C(=O)c2cc3c(s2)CCC3)c1 | inconclusive: 10.6 µM [inhibitor, partial curve] | 
21 | CNS(=O)(=O)c1cccc(C(=O)OCC(=O)Nc2ccc3ccccc3c2)c1 | inconclusive: 23.8 µM [inhibitor, single point] | 
22 | Cc1ccccc1-c1cc2nc(-c3ccc([N+](=O)[O-])cc3)cc(=O)n2[nH]1 | inconclusive: 31.6 µM [inhibitor, partial curve, poor fit] | 
23 | NC(N)=Nc1nc(-c2ccccc2)c2ccccc2n1 | inactive | 

Given with tabs: two of the compounds above
Row	Compound	Potency	activity change, negative = inhibition
13	O=C(CN(c1cccc(C(F)(F)F)c1)S(=O)(=O)c1ccc(Cl)c([N+](=O)[O-])c1)NCc1ccccc1Cl	inconclusive: 25.1 µM [inhibitor, single point]	
14	Cc1ccc(N/C=C/C(=O)C(C)(C)C)c(O)c1	inconclusive: 3.98 µM [inhibitor, single point]	

The list continues.

Row | Compound | Potency | activity change, negative = inhibition
24 | CC1CCCC(C)N1C(=O)COc1ccc([N+](=O)[O-])cc1Cl (stereo not drawn) | inconclusive: 44.7 µM [inhibitor, single point] | 
25 | Cc1ccc(S(=O)(=O)NCC(=O)Nc2cccc([N+](=O)[O-])c2)cc1 | inconclusive: 25.1 µM [inhibitor, partial curve] | 
26 | O=C(c1ccc(-n2cncn2)c([N+](=O)[O-])c1)N1CCN(S(=O)(=O)c2ccc(F)c(F)c2)CC1 | inactive | 
27 | CCOC(=O)C1=C(C)NC(=S)NC1c1ccco1 (stereo not drawn) | inconclusive: 22.4 µM [inhibitor, partial curve] | 
28 | CN(C)c1cccc(N(C)C)c1CNC(=O)C(C)(C)C | inconclusive: 7.94 µM [inhibitor, single point] | 
29 | O=C1/C(=C/c2ccsc2)N2CCC1CC2 | inconclusive: 1.41 µM [inhibitor, partial curve] | 
30 | CC(C)N(CCC(=O)c1ccc2ccccc2c1)Cc1ccccc1 | inactive | 
31 | CCOC(=O)c1c(NC(=O)/C=C/C(=O)O)sc(C)c1-c1ccc(Cl)cc1 | inactive | 
32 | COc1ccc(C2CC(=O)Nc3ccccc3S2(=O)=O)cc1OC (stereo not drawn) | inconclusive: 44.7 µM [inhibitor, single point] | 
33 | CC(=O)N(O)C/C=C/c1cccc(Oc2ccccc2)c1 | inactive | 
34 | O=C(Nc1nnc(-c2ccco2)o1)c1ccc(N2C(=O)CCC2=O)cc1 | inactive | 
35 | CCN(CC)CCOC(=O)c1ccc(NC(=O)CCCN2C(=O)S/C(=C/c3ccc(OC)cc3)C2=S)cc1 | active: 33.6 µM | 
36 | Cc1ccc(S(=O)(=O)Nc2ccc(N3CCOCC3)nc2)cc1 | inactive | 
37 | CCOc1ccc(N2CSC(=S)N(c3ccc(OCC)cc3)C2)cc1 | inconclusive: 8.91 µM [inhibitor, single point] | 
38 | COc1cc(N(C)C)c(NC(C)=O)cc1C(=O)O | inconclusive: 0.0126 µM [inhibitor, full curve, poor fit] | 
39 | CCSc1sc(CC)cc1C=O | inconclusive: 28.2 µM [inhibitor, partial curve, poor fit] | 
40 | CN(CC(=O)Nc1ccc(F)cc1)CC(=O)N1CCCC1 | inactive | 
41 | CC(NC(=O)CC1SC(N)=NC1=O)c1ccccc1 (stereo not drawn) | inconclusive: 7.94 µM [inhibitor, partial curve, poor fit] | 
42 | Cc1ccc(NC(=O)CS(=O)CC(=O)Nc2ccc(N3CCOCC3)cc2)cc1Cl (stereo not drawn) | inconclusive: 3.16 µM [inhibitor, partial curve] | 
43 | N#C/C(=C/c1ccco1)C(N)=S | inconclusive: 39.8 µM [inhibitor, single point] | 
44 | O=C1CCCC/C1=C\Nc1ccc(O)cc1 | inconclusive: 39.8 µM [inhibitor, single point] | 
45 | Cc1nnc(SCC2=C(C(=O)O)N3C(=O)C(NC(=O)Cc4ccccc4)C3SC2)s1 (stereo not drawn) | inactive | 
46 | CC1CCCCN1CC(=O)Nc1sc2c(c1C#N)CCC2 (stereo not drawn) | inconclusive: 20 µM [inhibitor, single point] | 

Row | Compound | Potency | activity change, negative = inhibition
47 | O=C(COc1ccccc1)NC1C(=O)N2C(C(=O)O)=C(Cl)CSC12 (stereo not drawn) | inactive | 
48 | Cc1cc(C(=O)CSc2nnc(-c3ccco3)o2)c(C)n1CC1COc2ccccc2O1 (stereo not drawn) | inconclusive: 39.8 µM [inhibitor, single point] | 
49 | O=c1c(-c2cc(F)cc(F)c2)nc2cnc(N3CCNCC3)nc2n1Cc1ccc(F)cc1 | inconclusive: 39.8 µM [inhibitor, single point] | 
50 | Cc1ccc(N)cc1O | inactive | 
51 | COc1ccc(C2=Nn3c(nnc3-c3ccc(OC)c(OC)c3)SC2)cc1OC | inconclusive: 25.1 µM [inhibitor, single point] | 
52 | COCCNc1nc(C)nc2c1nc(-c1ccccc1)n2CCN1CCCC1 | inconclusive: 22.4 µM [inhibitor, single point] | 
53 | CC(=O)Nc1ccc(-c2csc(N3CCC(C(N)=O)CC3)n2)cc1 | inactive | 
54 | O=C(Nc1ccc(Cl)c([N+](=O)[O-])c1)c1ccc2c(c1)OCCO2 | inconclusive: 39.8 µM [inhibitor, single point] | 
55 | CC1(C)CC(=O)C2=C(C1)c1c(ccc3ccccc13)NC2c1ccc(OCC(=O)O)cc1 (stereo not drawn) | inactive | 
56 | O=C(O)/C(=C\c1ccco1)NC(=O)c1ccccc1 | inconclusive: 5.62 µM [inhibitor, single point] | 
57 | COc1cccc(C(c2c(C)[nH]n(-c3ccccc3)c2=O)c2c(C)[nH]n(-c3ccccc3)c2=O)c1OC | inactive | 
58 | CC1(C)N=C(c2cccs2)C(C)(C)N1O | inactive | 
59 | COc1ccc(-c2cc(C(=O)O)nc3ccc4ccccc4c23)cc1OC | inactive | 
60 | Cc1ccccc1C(=O)Nc1ccc2c(C#N)c3nc4ccccc4nc3n2c1 | inconclusive: 8.91 µM [inhibitor, full curve, poor fit] | 
61 | CCc1ccc(NC(=O)N(CCN(C)C)C(C)c2cccnc2)cc1 (stereo not drawn) | inconclusive: 44.7 µM [inhibitor, single point] | 
62 | COc1cccc(/C=C2\SC(=S)N(CCCC(=O)Nc3ccc(C(=O)O)cc3)C2=O)c1 | inactive | 
63 | O=C(N[C@@H](CCC/[N+]([O-])=C/c1ccccc1)C(=O)O)OCc1ccccc1 | inconclusive: 37.7 µM [inhibitor, single point] | 
64 | O=C(O)c1ccc(Nc2nc(-c3cc4ccccc4oc3=O)cs2)cc1O | inactive | 
65 | O=C(C1CCN(S(=O)(=O)Cc2ccccc2)CC1)N1CCN(c2ncccn2)CC1 | inconclusive: 14.1 µM [inhibitor, partial curve] | 
66 | COc1ccccc1C(=O)NC(=S)/C=C1/N(C)c2ccccc2C1(C)C | inactive | 
67 | CCCc1ccc(C(=O)NNc2cc(Cl)ccc2Cl)cc1 | inconclusive: 39.8 µM [inhibitor, partial curve, poor fit] | 
68 | O=C(O)CNC(=O)CC1S/C(=N/N=C2/NC(=O)CS2)NC1=O (stereo not drawn) | inconclusive: 39.8 µM [inhibitor, partial curve] | 

Two successive entries from above:
Row | Compound | Potency | activity change, negative = inhibition
52 | COCCNc1nc(C)nc2c1nc(-c1ccccc1)n2CCN1CCCC1 | inconclusive: 22.4 µM [inhibitor, single point] | 
53 | CC(=O)Nc1ccc(-c2csc(N3CCC(C(N)=O)CC3)n2)cc1 | inactive | 
